Assay results from patent publication US20250145665A1, “MACROCYCLIC PEPTIDES USEFUL AS MODULATORS OF TNF ALPHA” (Bristol-Myers Squibb Company, priority 2023, published 2025).
Read-outs that look alike come from different tables or passages of the source. Some of these results come from one statement about several compounds together. Starred links: 1 amine or outer side, 2 acyl side, 3 side chain; linkers in the order of their positions; H or OH if unused. Positions of bridges follow the written chain, without caps; N, C: chain ends. Non-standard residues stand in square brackets, D forms with d. Residues, ends and D or L forms follow the SMILES beside them. *: point of attachment. X5 = Cn1nc(C(=O)Nc2ccc(-c3ccc(C[C@H](N[*:1])C(=O)[*:2])cc3)cc2)c2ccccc21; Bip(4'-NH) = O=C([C@H](Cc1ccc(-c2ccc(N[*:3])cc2)cc1)N[*:1])[*:2]; dArg(ω-(3-HO-benzyl)) = N=C(NCCC[C@@H](N)C(=O)O)NCc1cccc(O)c1; Indazole3carbonyl(1-CH2COOH) = O=C(O)Cn1nc(C(=O)*)c2ccccc21; X87 = N=C(NCCC[C@@H](N[*:1])C(=O)[*:2])NCc1ccc(C(=O)O)cc1; X4 = N=C(NCCCc1cccc(N)c1)NCCC[C@@H](N[*:1])C(=O)[*:2]; Ala(morpholin-4-yl) = N[C@@H](CN1CCOCC1)C(=O)O; Phe(3-CONH2) = NC(=O)c1cccc(C[C@H](N)C(=O)O)c1; Bip = N[C@@H](Cc1ccc(-c2ccccc2)cc1)C(=O)O; 2Pal = N[C@@H](Cc1ccccn1)C(=O)O; Tle = CC(C)(C)[C@H](N)C(=O)O; Aze = O=C(O)[C@@H]1CCN1; Sar = CNCC(=O)O

The chains behind the UniProt entries cited, without tags or fusion partners. Residues count along the entry.
UniProt P01375, 77-233 limits assumed: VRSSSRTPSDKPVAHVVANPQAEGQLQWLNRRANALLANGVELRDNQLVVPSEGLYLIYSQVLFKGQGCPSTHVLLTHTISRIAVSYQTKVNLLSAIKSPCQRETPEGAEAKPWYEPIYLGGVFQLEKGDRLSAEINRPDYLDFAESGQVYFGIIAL

Biological target: TNFα (Homo sapiens, UniProt P01375)
Experiment: TNF-Induced HEK-Blue Assay
Format: cell-based
Details: read-out: IC50 values measured in the TNF induced HEK-Blue assay
[1] = summary statement for all examples

Row | Compound | IC50 [1] [µM] | IC50 [µM]
1 | CC(C)C[C@@H]1NC(=O)[C@H](Cc2ccc(O)cc2)NC(=O)[C@H](C(C)C)NC(=O)[C@@H]2CCCN2C(=O)[C@H](C(C)C)NC(=O)[C@@H](CCCNC(=N)NCc2cccc(O)c2)NC(=O)[C@H](CC(=O)O)NC(=O)[C@@H]2CCCN2C(=O)CN(C)C(=O)[C@H](Cc2ccc(-c3ccc(NC(=O)c4nn(CC(=O)O)c5ccccc45)cc3)cc2)NC(=O)[C@H](Cc2ccc(-c3ccccc3)cc2)NC(=O)[C@H](CN2CCOCC2)NC(=O)CSC[C@@H](C(=O)NCC(N)=O)NC1=O [Example 625] ({CH2CO}-[Ala(morpholin-4-yl)][Bip][Bip(4'-NH)](Indazole3carbonyl(1-CH2COOH))[Sar]PD[dArg(ω-(3-HO-benzyl))]VPVYLCG-NH2; thioether N-13) | ≤ 25 | –
2 | CC[C@H](C)[C@@H]1NC(=O)[C@@H]2CCN2C(=O)[C@H]([C@@H](C)CC)NC(=O)[C@@H](CCCNC(=N)N)NC(=O)[C@H](CC(=O)O)NC(=O)[C@H](Cc2ccc(O)cc2)NC(=O)CN(C)C(=O)[C@H](Cc2ccc(-c3ccc(NC(=O)c4nn(CC(=O)O)c5ccccc45)cc3)cc2)NC(=O)[C@H](Cc2ccc(-c3ccccc3)cc2)NC(=O)[C@H](C(C)(C)C)NC(=O)CSC[C@@H](C(=O)NCC(N)=O)NC(=O)[C@H](CC(C)C)NC(=O)[C@H](Cc2ccc(O)cc2)NC1=O [Example 357] ({CH2CO}-[Tle][Bip][Bip(4'-NH)](Indazole3carbonyl(1-CH2COOH))[Sar]YD[dR]I[Aze]IYLCG-NH2; thioether N-13) | ≤ 25 | –
3 | CC[C@H](C)[C@@H]1NC(=O)[C@@H]2CCCN2C(=O)[C@H]([C@@H](C)CC)NC(=O)[C@@H](CCCNC(=N)N)NC(=O)[C@H](CC(=O)O)NC(=O)[C@H](Cc2ccccn2)NC(=O)CN(C)C(=O)[C@H](Cc2ccc(-c3ccc(NC(=O)c4nn(CC(=O)O)c5ccccc45)cc3)cc2)NC(=O)[C@H](Cc2ccc(-c3ccccc3)cc2)NC(=O)[C@H](C(C)(C)C)NC(=O)CSC[C@@H](C(=O)NCC(N)=O)NC(=O)[C@H](CC(C)C)NC(=O)[C@H](Cc2cccc(C(N)=O)c2)NC1=O [Example 356] ({CH2CO}-[Tle][Bip][Bip(4'-NH)](Indazole3carbonyl(1-CH2COOH))[Sar][2Pal]D[dR]IPI[Phe(3-CONH2)]LCG-NH2; thioether N-13) | ≤ 25 | –
4 | CC(C)C[C@@H]1NC(=O)[C@H](CCCNC(=N)N)NC(=O)[C@H](C(C)C)NC(=O)[C@@H]2CCCN2C(=O)[C@H](C(C)C)NC(=O)[C@@H](CCCNC(=N)NCCCc2cccc(N)c2)NC(=O)[C@H](CC(=O)O)NC(=O)[C@@H]2CCCN2C(=O)CN(C)C(=O)[C@H](Cc2ccc(-c3ccc(NC(=O)c4nn(C)c5ccccc45)cc3)cc2)NC(=O)[C@H](Cc2ccc(-c3ccccc3)cc2)NC(=O)[C@H](CN2CCOCC2)NC(=O)CSC[C@@H](C(=O)NCC(N)=O)NC1=O [Example 394] ({CH2CO}-[Ala(morpholin-4-yl)][Bip][X5][Sar]PD[X4]VPVRLCG-NH2; thioether N-13) | – | ≤ 25
5 | CC(C)C[C@@H]1NC(=O)[C@H](CCCNC(=N)N)NC(=O)[C@H](C(C)C)NC(=O)[C@@H]2CCCN2C(=O)[C@H](C(C)C)NC(=O)[C@@H](CCCNC(=N)NCc2ccc(C(=O)O)cc2)NC(=O)[C@H](CC(=O)O)NC(=O)[C@@H]2CCCN2C(=O)CN(C)C(=O)[C@H](Cc2ccc(-c3ccc(NC(=O)c4nn(CC(=O)O)c5ccccc45)cc3)cc2)NC(=O)[C@H](Cc2ccc(-c3ccccc3)cc2)NC(=O)[C@H](CN2CCOCC2)NC(=O)CSC[C@@H](C(=O)NCC(N)=O)NC1=O [Example 507] ({CH2CO}-[Ala(morpholin-4-yl)][Bip][Bip(4'-NH)](Indazole3carbonyl(1-CH2COOH))[Sar]PD[X87]VPVRLCG-NH2; thioether N-13) | ≤ 25 | –
6 | CC(C)C[C@@H]1NC(=O)[C@H](Cc2ccc(O)cc2)NC(=O)[C@H](C(C)C)NC(=O)CN(C)C(=O)[C@H](C(C)C)NC(=O)[C@H](CCCNC(=N)N)NC(=O)[C@H](CC(=O)O)NC(=O)[C@@H]2CCCN2C(=O)CN(C)C(=O)[C@H](Cc2ccc(-c3ccccc3)cc2)NC(=O)[C@H](Cc2ccc(-c3ccccc3)cc2)NC(=O)[C@H](CC(N)=O)NC(=O)CSC[C@@H](C(=O)NCC(N)=O)NC1=O [Example 142] ({CH2CO}-N[Bip][Bip][Sar]PDRV[Sar]VYLCG-NH2; thioether N-13) | ≤ 25 | –
